Measured values from the supplement of paper PMC12823440, “Inhibitors supercharge kinase turnover through native proteolytic circuits” (Nature, 2025).
Counter-ions that a name gives are not always drawn. The list shows a part of the results. The calls rarely recur for the same compound in another form.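 In K562 cells expressing nanoluciferase-fused kinases, luminescence was recorded at 4 h intervals between 2 and 18 h, normalized as percent of control with DMSO at 100% and a positive control at 0%. A significant (2 sigma) signal drop marks a time point as decreased. The authors' rule for a hit is not shown and takes in more than the number of time points.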

Chains of the proteins cited; added tags and fusions are not shown. Lines headed by an entry give the natural chain unless they say otherwise; changes in a name come on top.
UniProt P42356, whole entry, looked up: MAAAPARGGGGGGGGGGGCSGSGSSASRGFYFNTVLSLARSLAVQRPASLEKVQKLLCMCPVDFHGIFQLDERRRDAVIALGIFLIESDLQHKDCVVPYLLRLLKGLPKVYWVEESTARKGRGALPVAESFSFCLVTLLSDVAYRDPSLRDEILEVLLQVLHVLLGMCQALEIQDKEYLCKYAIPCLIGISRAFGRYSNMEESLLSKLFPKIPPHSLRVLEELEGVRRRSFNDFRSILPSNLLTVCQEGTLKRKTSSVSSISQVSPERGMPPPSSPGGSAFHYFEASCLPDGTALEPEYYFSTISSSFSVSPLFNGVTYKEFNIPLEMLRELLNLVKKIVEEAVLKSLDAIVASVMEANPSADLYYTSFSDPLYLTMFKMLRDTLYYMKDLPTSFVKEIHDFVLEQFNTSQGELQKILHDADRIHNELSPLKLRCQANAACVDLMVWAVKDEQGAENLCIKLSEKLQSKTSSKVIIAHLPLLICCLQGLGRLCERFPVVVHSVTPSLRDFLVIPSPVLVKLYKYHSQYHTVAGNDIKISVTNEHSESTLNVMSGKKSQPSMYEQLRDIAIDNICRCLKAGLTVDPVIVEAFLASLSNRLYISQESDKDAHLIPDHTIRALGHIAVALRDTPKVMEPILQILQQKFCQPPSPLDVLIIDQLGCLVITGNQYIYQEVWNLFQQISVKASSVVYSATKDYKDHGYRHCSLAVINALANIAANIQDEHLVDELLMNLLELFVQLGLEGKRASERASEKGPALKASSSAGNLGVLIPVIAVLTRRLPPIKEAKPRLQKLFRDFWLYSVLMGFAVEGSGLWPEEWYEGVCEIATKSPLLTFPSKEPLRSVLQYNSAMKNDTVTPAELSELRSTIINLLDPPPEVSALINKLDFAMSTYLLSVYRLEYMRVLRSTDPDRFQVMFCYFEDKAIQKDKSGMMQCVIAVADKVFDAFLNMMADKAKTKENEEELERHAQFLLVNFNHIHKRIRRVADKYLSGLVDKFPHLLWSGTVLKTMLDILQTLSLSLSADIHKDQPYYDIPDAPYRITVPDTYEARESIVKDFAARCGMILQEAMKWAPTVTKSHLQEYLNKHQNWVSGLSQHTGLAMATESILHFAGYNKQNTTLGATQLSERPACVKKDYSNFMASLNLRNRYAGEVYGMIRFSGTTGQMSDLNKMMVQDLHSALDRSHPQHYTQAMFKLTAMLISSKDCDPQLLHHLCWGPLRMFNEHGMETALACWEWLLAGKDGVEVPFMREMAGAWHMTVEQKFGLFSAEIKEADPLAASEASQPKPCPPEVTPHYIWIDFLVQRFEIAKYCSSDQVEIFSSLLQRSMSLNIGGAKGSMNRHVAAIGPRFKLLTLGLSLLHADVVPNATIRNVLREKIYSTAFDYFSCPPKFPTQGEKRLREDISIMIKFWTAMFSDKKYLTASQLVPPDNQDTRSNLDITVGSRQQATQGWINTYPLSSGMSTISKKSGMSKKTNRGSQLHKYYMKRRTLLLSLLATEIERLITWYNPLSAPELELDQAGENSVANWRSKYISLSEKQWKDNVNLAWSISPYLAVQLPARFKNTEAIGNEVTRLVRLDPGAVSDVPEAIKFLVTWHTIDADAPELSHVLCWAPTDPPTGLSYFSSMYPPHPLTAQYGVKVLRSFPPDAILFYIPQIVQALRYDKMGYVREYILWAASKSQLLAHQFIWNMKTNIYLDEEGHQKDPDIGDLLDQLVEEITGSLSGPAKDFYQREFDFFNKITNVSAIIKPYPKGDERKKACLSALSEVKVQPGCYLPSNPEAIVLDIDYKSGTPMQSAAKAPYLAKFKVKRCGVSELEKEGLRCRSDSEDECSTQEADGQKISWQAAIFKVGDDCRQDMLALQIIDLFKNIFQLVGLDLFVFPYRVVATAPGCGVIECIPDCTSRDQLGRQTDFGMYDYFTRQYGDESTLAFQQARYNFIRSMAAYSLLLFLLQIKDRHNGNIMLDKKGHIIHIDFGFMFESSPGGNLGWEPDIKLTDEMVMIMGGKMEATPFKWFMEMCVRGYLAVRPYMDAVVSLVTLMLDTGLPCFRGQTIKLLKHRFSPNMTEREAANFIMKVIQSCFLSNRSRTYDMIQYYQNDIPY
UniProt Q13131: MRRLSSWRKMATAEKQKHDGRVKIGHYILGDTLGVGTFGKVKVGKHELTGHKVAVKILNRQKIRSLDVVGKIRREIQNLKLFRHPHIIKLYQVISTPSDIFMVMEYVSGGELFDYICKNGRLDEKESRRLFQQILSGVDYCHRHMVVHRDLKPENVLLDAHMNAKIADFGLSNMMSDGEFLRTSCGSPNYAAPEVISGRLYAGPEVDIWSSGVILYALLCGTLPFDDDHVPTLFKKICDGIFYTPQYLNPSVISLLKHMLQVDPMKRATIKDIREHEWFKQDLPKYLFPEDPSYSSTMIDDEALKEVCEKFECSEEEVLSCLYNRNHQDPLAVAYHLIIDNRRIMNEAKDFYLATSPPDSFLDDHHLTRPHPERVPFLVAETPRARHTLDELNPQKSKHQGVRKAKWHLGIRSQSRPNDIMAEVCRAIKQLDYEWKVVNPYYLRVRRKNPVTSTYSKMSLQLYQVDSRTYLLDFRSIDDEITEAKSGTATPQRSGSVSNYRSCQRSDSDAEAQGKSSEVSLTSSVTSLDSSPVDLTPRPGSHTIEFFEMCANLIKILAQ
UniProt P07949, whole entry, looked up: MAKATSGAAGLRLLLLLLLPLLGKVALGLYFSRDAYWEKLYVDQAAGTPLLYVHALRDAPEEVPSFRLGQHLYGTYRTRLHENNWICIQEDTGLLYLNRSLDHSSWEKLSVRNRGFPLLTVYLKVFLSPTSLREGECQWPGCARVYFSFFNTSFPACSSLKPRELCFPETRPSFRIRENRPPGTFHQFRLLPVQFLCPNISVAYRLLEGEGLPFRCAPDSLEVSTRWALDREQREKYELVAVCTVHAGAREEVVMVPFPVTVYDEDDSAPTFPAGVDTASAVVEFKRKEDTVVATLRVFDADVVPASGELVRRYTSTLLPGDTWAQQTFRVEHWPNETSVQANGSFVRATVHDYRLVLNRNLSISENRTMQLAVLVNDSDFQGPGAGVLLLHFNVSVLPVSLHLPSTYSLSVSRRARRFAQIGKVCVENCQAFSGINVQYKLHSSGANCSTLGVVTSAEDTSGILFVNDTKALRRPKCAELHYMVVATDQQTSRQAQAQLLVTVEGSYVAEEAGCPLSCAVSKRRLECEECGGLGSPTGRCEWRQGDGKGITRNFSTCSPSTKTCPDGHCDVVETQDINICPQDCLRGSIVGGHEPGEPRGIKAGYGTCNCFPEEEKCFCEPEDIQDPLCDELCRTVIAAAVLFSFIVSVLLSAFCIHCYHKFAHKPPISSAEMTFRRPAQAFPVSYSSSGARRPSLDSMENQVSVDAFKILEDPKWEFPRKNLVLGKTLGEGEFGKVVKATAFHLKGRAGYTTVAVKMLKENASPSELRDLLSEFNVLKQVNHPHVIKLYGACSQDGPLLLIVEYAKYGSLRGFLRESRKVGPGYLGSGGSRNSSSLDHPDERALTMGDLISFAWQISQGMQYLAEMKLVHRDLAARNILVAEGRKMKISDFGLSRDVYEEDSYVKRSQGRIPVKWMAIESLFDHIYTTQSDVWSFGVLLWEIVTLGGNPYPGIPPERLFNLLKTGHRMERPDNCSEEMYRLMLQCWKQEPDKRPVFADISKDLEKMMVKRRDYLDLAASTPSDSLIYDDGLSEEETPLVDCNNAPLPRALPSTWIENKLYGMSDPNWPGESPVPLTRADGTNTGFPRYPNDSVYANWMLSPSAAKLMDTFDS
UniProt P07949, whole entry M918T, looked up: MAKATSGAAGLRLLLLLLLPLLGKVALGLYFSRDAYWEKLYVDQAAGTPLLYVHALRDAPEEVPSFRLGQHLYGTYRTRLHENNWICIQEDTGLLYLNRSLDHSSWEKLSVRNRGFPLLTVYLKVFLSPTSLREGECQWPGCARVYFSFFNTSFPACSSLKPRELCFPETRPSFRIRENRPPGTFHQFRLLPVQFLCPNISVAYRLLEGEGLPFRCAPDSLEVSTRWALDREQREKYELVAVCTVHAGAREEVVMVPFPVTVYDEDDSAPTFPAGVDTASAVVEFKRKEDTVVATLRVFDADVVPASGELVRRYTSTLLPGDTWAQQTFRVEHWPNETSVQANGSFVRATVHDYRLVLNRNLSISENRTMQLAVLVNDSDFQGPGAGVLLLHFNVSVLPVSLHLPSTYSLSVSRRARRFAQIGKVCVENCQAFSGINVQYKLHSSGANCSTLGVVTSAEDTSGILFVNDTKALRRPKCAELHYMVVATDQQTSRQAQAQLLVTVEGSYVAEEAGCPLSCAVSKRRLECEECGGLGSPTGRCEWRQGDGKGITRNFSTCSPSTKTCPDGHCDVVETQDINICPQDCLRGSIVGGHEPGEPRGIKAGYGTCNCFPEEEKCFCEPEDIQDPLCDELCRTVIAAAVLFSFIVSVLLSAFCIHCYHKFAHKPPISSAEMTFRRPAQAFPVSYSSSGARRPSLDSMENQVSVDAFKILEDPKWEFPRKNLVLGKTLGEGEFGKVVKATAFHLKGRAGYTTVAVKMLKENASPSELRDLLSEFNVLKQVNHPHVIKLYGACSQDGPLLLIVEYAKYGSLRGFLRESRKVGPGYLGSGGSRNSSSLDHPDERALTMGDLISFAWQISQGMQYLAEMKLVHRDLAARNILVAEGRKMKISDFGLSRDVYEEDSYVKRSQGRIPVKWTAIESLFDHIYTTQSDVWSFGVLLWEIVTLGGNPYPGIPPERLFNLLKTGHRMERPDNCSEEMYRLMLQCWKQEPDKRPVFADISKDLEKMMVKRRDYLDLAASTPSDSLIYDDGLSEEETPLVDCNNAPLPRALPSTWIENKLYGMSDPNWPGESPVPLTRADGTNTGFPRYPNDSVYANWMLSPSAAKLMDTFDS
UniProt Q9BRS2: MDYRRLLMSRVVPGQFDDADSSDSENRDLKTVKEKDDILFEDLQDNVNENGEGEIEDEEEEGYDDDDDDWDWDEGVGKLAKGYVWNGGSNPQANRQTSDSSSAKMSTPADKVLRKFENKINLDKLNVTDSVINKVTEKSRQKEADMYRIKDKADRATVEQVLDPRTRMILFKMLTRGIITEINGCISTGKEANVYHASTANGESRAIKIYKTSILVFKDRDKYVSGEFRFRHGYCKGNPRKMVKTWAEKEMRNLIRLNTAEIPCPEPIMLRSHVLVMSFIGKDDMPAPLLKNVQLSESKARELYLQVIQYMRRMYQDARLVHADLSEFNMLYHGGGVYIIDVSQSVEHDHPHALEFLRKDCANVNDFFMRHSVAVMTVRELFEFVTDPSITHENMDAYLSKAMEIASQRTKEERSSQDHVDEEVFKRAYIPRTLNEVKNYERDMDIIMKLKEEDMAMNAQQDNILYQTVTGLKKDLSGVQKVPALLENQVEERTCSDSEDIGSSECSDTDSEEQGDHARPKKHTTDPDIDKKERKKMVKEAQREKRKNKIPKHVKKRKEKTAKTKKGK
UniProt Q9Y6E0: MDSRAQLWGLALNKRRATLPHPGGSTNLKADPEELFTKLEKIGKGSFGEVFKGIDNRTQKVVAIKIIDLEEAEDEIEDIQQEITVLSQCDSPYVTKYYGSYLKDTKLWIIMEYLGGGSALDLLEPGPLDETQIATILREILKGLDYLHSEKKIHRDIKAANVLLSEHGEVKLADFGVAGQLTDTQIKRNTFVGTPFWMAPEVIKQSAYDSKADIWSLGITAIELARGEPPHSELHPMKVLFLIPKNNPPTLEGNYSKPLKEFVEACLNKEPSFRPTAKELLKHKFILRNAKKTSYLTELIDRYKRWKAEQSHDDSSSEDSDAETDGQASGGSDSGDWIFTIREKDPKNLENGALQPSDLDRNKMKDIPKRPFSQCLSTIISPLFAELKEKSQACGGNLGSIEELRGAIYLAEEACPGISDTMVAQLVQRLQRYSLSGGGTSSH

Columns and labels:
Experiment in all cases: kinase-Nluc reporter destabilization hit call (1 = scored as downregulated) (binary); higher = compound decreases kinase abundance
Conditions in all cases: K562; 2-18 h
PDPK1 = PDPK1 (UniProt O15530)
PIK4CA = PIK4CA (UniProt P42356)
PIK4CB = PIK4CB (UniProt Q9UBF8)
PLK1 = PLK1 (UniProt P53350)
PRKAA1 = PRKAA1 (UniProt Q13131)
PRKCA = PRKCA (UniProt P17252)
PTK2 = PTK2 (UniProt Q05397)
PTK2B = PTK2B (UniProt Q14289)
RAF1 = RAF1 (UniProt P04049)
[1] = target: RAF1_S257L (clone: RAF1_mut) (UniProt P04049)
RET = RET (UniProt P07949)
[2] = target: RET_M918T (clone: RET_mut) (UniProt P07949)
RIOK1 = RIOK1 (UniProt Q9BRS2)
RIPK1 = RIPK1 (UniProt Q13546)
RIPK2 = RIPK2 (UniProt O43353)
ROR2 = ROR2 (UniProt Q01974)
RPS6KA1 = RPS6KA1 (UniProt Q15418)
SPHK1 = SPHK1 (UniProt Q9NYA1)
SRC = SRC (UniProt P12931)
STK24 = STK24 (UniProt Q9Y6E0)

Measured: kinase-Nluc reporter destabilization hit call

COc1ncccc1-c1cnn2ccc(N3CCN(C(=O)OC(C)C)CC3)nc12 (10 µM)
inactive: PDPK1 = 0 | PIK4CA 0 | PIK4CB 0 | PLK1 = 0 | PRKAA1 = 0 | PRKCA 0 | PTK2 = 0 | PTK2B 0 | RAF1 = 0 | [1] 0 | RET 0 | [2] 0 | RIOK1 = 0 | RIPK1 = 0 | RIPK2 = 0 | ROR2 = 0 | RPS6KA1 = 0 | SPHK1 = 0 | SRC 0 | STK24 = 0

COc1ccc(N=Nc2c(N)n[nH]c2N)cc1 (10 µM)
inactive: PDPK1 = 0 | PIK4CA 0 | PIK4CB 0 | PLK1 = 0 | PRKAA1 = 0 | PRKCA 0 | PTK2 = 0 | PTK2B 0 | RAF1 = 0 | [1] 0 | RET 0 | [2] 0 | RIOK1 = 0 | RIPK1 = 0 | RIPK2 = 0 | ROR2 = 0 | RPS6KA1 = 0 | SPHK1 = 0 | SRC 0 | STK24 = 0

CCc1cccc(CC)c1NC(=O)N1Cc2[nH]nc(NC(=O)c3ccc(N4CCN(C)CC4)cc3)c2C1 (2.5 µM)
inactive: PDPK1 = 0 | PIK4CA 0 | PIK4CB 0 | PLK1 = 0 | PRKAA1 = 0 | PRKCA 0 | PTK2 = 0 | PTK2B 0 | RAF1 = 0 | [1] 0 | RET 0 | [2] 0 | RIOK1 = 0 | RIPK1 = 0 | RIPK2 = 0 | ROR2 = 0 | RPS6KA1 = 0 | SPHK1 = 0 | SRC 0 | STK24 = 0

CC(C)c1cc(/C=C(\C#N)C(=O)NCCCc2ccccc2)cc(C(C)C)c1O (10 µM)
inactive: PDPK1 = 0 | PIK4CA 0 | PIK4CB 0 | PLK1 = 0 | PRKAA1 = 0 | PRKCA 0 | PTK2 = 0 | PTK2B 0 | RAF1 = 0 | [1] 0 | RET 0 | [2] 0 | RIOK1 = 0 | RIPK1 = 0 | RIPK2 = 0 | ROR2 = 0 | RPS6KA1 = 0 | SPHK1 = 0 | SRC 0 | STK24 = 0

CC(C)S(=O)(=O)c1ccc2nccc(Nc3ccc4scnc4c3)c2c1 (10 µM)
inactive: PDPK1 = 0 | PIK4CA 0 | PIK4CB 0 | PLK1 = 0 | PRKAA1 = 0 | PRKCA 0 | PTK2 = 0 | PTK2B 0 | RAF1 = 0 | [1] 0 | RET 0 | [2] 0 | RIOK1 = 0 | RIPK1 = 0 | RIPK2 = 0 | ROR2 = 0 | RPS6KA1 = 0 | SPHK1 = 0 | SRC 0 | STK24 = 0

O=C1O[C@H]([C@@H](O)CO)C(O)=C1OP(=O)(O)O [2-Phospho-L-ascorbic acid (trisodium)] (10 µM)
inactive: PDPK1 = 0 | PIK4CA 0 | PIK4CB 0 | PLK1 = 0 | PRKAA1 = 0 | PRKCA 0 | PTK2 = 0 | PTK2B 0 | RAF1 = 0 | [1] 0 | RET 0 | [2] 0 | RIOK1 = 0 | RIPK1 = 0 | RIPK2 = 0 | ROR2 = 0 | RPS6KA1 = 0 | SPHK1 = 0 | SRC 0 | STK24 = 0

c1cc(NC2CCNCC2)nc(-c2cnc3ccccn23)c1 [IRAK inhibitor 1] (10 µM)
inactive: PDPK1 = 0 | PIK4CA 0 | PIK4CB 0 | PLK1 = 0 | PRKAA1 = 0 | PRKCA 0 | PTK2 = 0 | PTK2B 0 | RAF1 = 0 | [1] 0 | RET 0 | [2] 0 | RIOK1 = 0 | RIPK1 = 0 | RIPK2 = 0 | ROR2 = 0 | RPS6KA1 = 0 | SPHK1 = 0 | SRC 0 | STK24 = 0

CN(c1ccc(NC(=O)Nc2ccc(OC(F)(F)F)cc2)cc1)c1ccnc(Nc2cccc(S(N)(=O)=O)c2)n1 (2.5 µM)
inactive: PDPK1 = 0 | PIK4CA 0 | PIK4CB 0 | PLK1 = 0 | PRKAA1 = 0 | PRKCA 0 | PTK2 = 0 | PTK2B 0 | RAF1 = 0 | [1] 0 | RET 0 | [2] 0 | RIOK1 = 0 | RIPK1 = 0 | RIPK2 = 0 | ROR2 = 0 | RPS6KA1 = 0 | SPHK1 = 0 | SRC 0 | STK24 = 0

CC(C)(O)[C@H]1CC[C@H](Nc2ccc3ncc(-c4cccc(C(F)(F)F)c4)n3n2)CC1 (10 µM)
inactive: PDPK1 = 0 | PIK4CA 0 | PIK4CB 0 | PLK1 = 0 | PRKAA1 = 0 | PRKCA 0 | PTK2 = 0 | PTK2B 0 | RAF1 = 0 | [1] 0 | RET 0 | [2] 0 | RIOK1 = 0 | RIPK1 = 0 | RIPK2 = 0 | ROR2 = 0 | RPS6KA1 = 0 | SPHK1 = 0 | SRC 0 | STK24 = 0

Cc1c(-c2ccc(C(N)=O)c3[nH]c4cc(C(C)(C)O)ccc4c23)cccc1-n1cnc2ccccc2c1=O (2.5 µM)
inactive: PDPK1 = 0 | PIK4CA 0 | PIK4CB 0 | PLK1 = 0 | PRKAA1 = 0 | PRKCA 0 | PTK2 = 0 | PTK2B 0 | RAF1 = 0 | [1] 0 | RET 0 | [2] 0 | RIOK1 = 0 | RIPK1 = 0 | RIPK2 = 0 | ROR2 = 0 | RPS6KA1 = 0 | SPHK1 = 0 | SRC 0 | STK24 = 0

Nc1n[nH]c2nc(-c3ccc(NS(=O)(=O)c4cc(Cl)ccc4F)cc3)cnc12 (10 µM)
active: SPHK1 = 1
inactive: PDPK1 = 0 | PIK4CA 0 | PIK4CB 0 | PLK1 = 0 | PRKAA1 = 0 | PRKCA 0 | PTK2 = 0 | PTK2B 0 | RAF1 = 0 | [1] 0 | RET 0 | [2] 0 | RIOK1 = 0 | RIPK1 = 0 | RIPK2 = 0 | ROR2 = 0 | RPS6KA1 = 0 | SRC 0 | STK24 = 0

CC(C)c1cccc(C(C)C)c1N1C(=O)c2ccc(N)cc2C1=O (2.5 µM)
inactive: PDPK1 = 0 | PIK4CA 0 | PIK4CB 0 | PLK1 = 0 | PRKAA1 = 0 | PRKCA 0 | PTK2 = 0 | PTK2B 0 | RAF1 = 0 | [1] 0 | RET 0 | [2] 0 | RIOK1 = 0 | RIPK1 = 0 | RIPK2 = 0 | ROR2 = 0 | RPS6KA1 = 0 | SPHK1 = 0 | SRC 0 | STK24 = 0

C[C@@H]1CN(c2cc(-c3n[nH]c4ccc(OC5(C)CC5)cc34)ncn2)C[C@H](C)O1 (10 µM)
inactive: PDPK1 = 0 | PIK4CA 0 | PIK4CB 0 | PLK1 = 0 | PRKAA1 = 0 | PRKCA 0 | PTK2 = 0 | PTK2B 0 | RAF1 = 0 | [1] 0 | RET 0 | [2] 0 | RIOK1 = 0 | RIPK1 = 0 | RIPK2 = 0 | ROR2 = 0 | RPS6KA1 = 0 | SPHK1 = 0 | SRC 0 | STK24 = 0

C[C@@H]1CCNC(=O)c2cc3ccc(C(=O)Nc4nc5ccccc5n4CCCN(C)C)cc3n21 (10 µM)
inactive: PDPK1 = 0 | PIK4CA 0 | PIK4CB 0 | PLK1 = 0 | PRKAA1 = 0 | PRKCA 0 | PTK2 = 0 | PTK2B 0 | RAF1 = 0 | [1] 0 | RET 0 | [2] 0 | RIOK1 = 0 | RIPK1 = 0 | RIPK2 = 0 | ROR2 = 0 | RPS6KA1 = 0 | SPHK1 = 0 | SRC 0 | STK24 = 0

O=C(NCc1cccc(O)c1)Nc1nc(-c2ccncc2)cs1 (10 µM)
inactive: PDPK1 = 0 | PIK4CA 0 | PIK4CB 0 | PLK1 = 0 | PRKAA1 = 0 | PRKCA 0 | PTK2 = 0 | PTK2B 0 | RAF1 = 0 | [1] 0 | RET 0 | [2] 0 | RIOK1 = 0 | RIPK1 = 0 | RIPK2 = 0 | ROR2 = 0 | RPS6KA1 = 0 | SPHK1 = 0 | SRC 0 | STK24 = 0

Oc1ccc(/C=C/c2cc(O)cc(F)c2)cc1 [Resveratrol analog 1] (10 µM)
inactive: PDPK1 = 0 | PIK4CA 0 | PIK4CB 0 | PLK1 = 0 | PRKAA1 = 0 | PRKCA 0 | PTK2 = 0 | PTK2B 0 | RAF1 = 0 | [1] 0 | RET 0 | [2] 0 | RIOK1 = 0 | RIPK1 = 0 | RIPK2 = 0 | ROR2 = 0 | RPS6KA1 = 0 | SPHK1 = 0 | SRC 0 | STK24 = 0

Two compounds drawn at random from the list so far:
CN(c1ccc(NC(=O)Nc2ccc(OC(F)(F)F)cc2)cc1)c1ccnc(Nc2cccc(S(N)(=O)=O)c2)n1 (2.5 µM)
inactive: PDPK1 = 0 | PIK4CA 0 | PIK4CB 0 | PLK1 = 0 | PRKAA1 = 0 | PRKCA 0 | PTK2 = 0 | PTK2B 0 | RAF1 = 0 | [1] 0 | RET 0 | [2] 0 | RIOK1 = 0 | RIPK1 = 0 | RIPK2 = 0 | ROR2 = 0 | RPS6KA1 = 0 | SPHK1 = 0 | SRC 0 | STK24 = 0

CC(C)c1cc(/C=C(\C#N)C(=O)NCCCc2ccccc2)cc(C(C)C)c1O (10 µM)
inactive: PDPK1 = 0 | PIK4CA 0 | PIK4CB 0 | PLK1 = 0 | PRKAA1 = 0 | PRKCA 0 | PTK2 = 0 | PTK2B 0 | RAF1 = 0 | [1] 0 | RET 0 | [2] 0 | RIOK1 = 0 | RIPK1 = 0 | RIPK2 = 0 | ROR2 = 0 | RPS6KA1 = 0 | SPHK1 = 0 | SRC 0 | STK24 = 0

Next compounds

FC(F)(F)c1ccc(/C=C/c2nc(COc3ccc(CCCCn4ccnn4)cc3)co2)cc1 [Mubritinib] (10 µM)
inactive: PDPK1 = 0 | PIK4CA 0 | PIK4CB 0 | PLK1 = 0 | PRKAA1 = 0 | PRKCA 0 | PTK2 = 0 | PTK2B 0 | RAF1 = 0 | [1] 0 | RET 0 | [2] 0 | RIOK1 = 0 | RIPK1 = 0 | RIPK2 = 0 | ROR2 = 0 | RPS6KA1 = 0 | SPHK1 = 0 | SRC 0 | STK24 = 0

CC(C)CNc1ccnc(NCc2csc(-c3ccccc3)n2)n1 [KHS101 hydrochloride] (2.5 µM)
inactive: PDPK1 = 0 | PIK4CA 0 | PIK4CB 0 | PLK1 = 0 | PRKAA1 = 0 | PRKCA 0 | PTK2 = 0 | PTK2B 0 | RAF1 = 0 | [1] 0 | RET 0 | [2] 0 | RIOK1 = 0 | RIPK1 = 0 | RIPK2 = 0 | ROR2 = 0 | RPS6KA1 = 0 | SPHK1 = 0 | SRC 0 | STK24 = 0

N#Cc1c2nc3ccccc3nc2n2ccc(NC(=O)c3cccs3)cc12 (10 µM)
inactive: PDPK1 = 0 | PIK4CA 0 | PIK4CB 0 | PLK1 = 0 | PRKAA1 = 0 | PRKCA 0 | PTK2 = 0 | PTK2B 0 | RAF1 = 0 | [1] 0 | RET 0 | [2] 0 | RIOK1 = 0 | RIPK1 = 0 | RIPK2 = 0 | ROR2 = 0 | RPS6KA1 = 0 | SPHK1 = 0 | SRC 0 | STK24 = 0
